# Experimental data as given in the supplement of paper PMC11150407.
# Hit rate of the full screen: of about 3,000 compounds, about 45 (2%) showed an effect of 50% or more. The list shows a part of the results.
# Test system: MOLM1 and UCSD/AML1 (averaged)
# Assay: cell viability relative to DMSO control (POC); higher = less growth inhibition
# Conditions: 1 µM; 72 h
# Protocol: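 Primary viability screen in the 3q26 EVI1-high AML cell lines MOLM1 and UCSD/AML1, compounds at 1 uM for 72 h. ATP CellTiter-Glo read-out given as percent viable over DMSO control (POC), averaged over duplicates. This mapping covers the TimTec NDL-3000 natural derivative library, whose compounds are identified by TimTec catalogue codes (ST...).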
row,Structure (SMILES),cell viability [%]
1,COc1ccc(C(=O)CSc2nc(-c3ccccc3)cc(-c3ccc(F)cc3)c2C#N)cc1OC,93.4
2,O=c1c(O)c(-c2ccc(O)cc2)oc2ccccc12,96.8
3,Cc1ccc(-c2nc(CSc3nc4c(=O)[nH]c(C)nc4n3C)c(C)o2)cc1,98.6
4,O=C1O[C@@H]2[C@@H](O)[C@H](O)O[C@@H]2[C@H]1O,97.7
5,COc1cccc(OC)c1OCc1cc(=O)[nH]c2ccccc12,101
6,O=C(CSc1nc2c(=O)[nH]cnc2n1-c1ccccc1)Nc1ccc(F)c(Cl)c1,97.8
7,COc1ccc2occ(C=O)c(=O)c2c1,120
8,COc1cccc(-c2oc3ccccc3c(=O)c2O)c1OC,90.6
9,Cc1ccc2c(=O)cc(-c3c(Cl)cccc3Cl)oc2c1,119
10,N=c1ccc2c(-c3ccccc3C(=O)O)c3ccc(N)cc3oc-2c1,93.1
11,COc1cc(C(=O)NC(c2ccccc2)c2c(O)ccc3ccccc23)cc(OC)c1OC (stereo not given),93
12,CC1CCCC(C)N1Cc1c(O)ccc2c(-c3ccccc3)cc(=O)oc12 (stereo not given),89.9
13,COc1cc(CCC(=O)Nc2sc(C)c(C)c2C#N)cc(OC)c1OC,101
14,CC(C)(C)CC(C)(C)NC(=O)CSc1ncnc2nc[nH]c12,97
15,Cc1[nH]c2c(C)ccc(F)c2c1CCNC(=O)c1ccc(Br)cc1,107
16,NC(Cc1ccccc1)C(=O)O (stereo not given),95.1
17,CC(C)CC(N)C(N)=O (stereo not given),94.1
18,O=c1oc2ccccc2c(NCCOc2ccccc2)c1[N+](=O)[O-],97.5
19,O=C(/C=C/c1ccccc1)OCCN(C1=NS(=O)(=O)c2ccccc21)c1ccccc1Cl,99.3
20,Cc1cccc(Cn2c(SCC(O)CO)nc3c2c(=O)[nH]c(=O)n3C)c1 (stereo not given),103
21,COc1cc(C=O)ccc1OC(=O)N1CCOCC1,90
22,CCc1ccc2oc(=O)cc(CN3CCN(C(=O)c4ccco4)CC3)c2c1,105
23,COc1ccc(CCNC(=O)CCCCl)cc1OC,94.6
24,Nc1nc2c(ncn2C2OC(COP(=O)(O)O)C(O)C2O)c(=O)[nH]1 (stereo not given),101
25,COc1ccc(C(=O)NCCc2c(C)[nH]c3c(Cl)cccc23)cc1OC,88.4
26,CCOc1cc(/C=C2\Oc3ccc(C(=O)OC)cc3C2=O)ccc1O,16.8
27,COc1ccc(/C=C2\Oc3cc(OCC(=O)OC(C)C)ccc3C2=O)cc1,92

# Nothing new here: entries from further up.
row,Structure (SMILES),cell viability [%]
23,COc1ccc(CCNC(=O)CCCCl)cc1OC,94.6
24,Nc1nc2c(ncn2C2OC(COP(=O)(O)O)C(O)C2O)c(=O)[nH]1 (stereo not given),101

# Remaining list, next part:

row,Structure (SMILES),cell viability [%]
1,COc1ccc2c(=O)cc(C(Cl)(Cl)Cl)oc2c1,5.13
2,N#CC1=C(N)Oc2c(oc(CO)cc2=O)C1c1ccnc2ccccc12 (stereo not given),103
3,CCCc1ccc(OCCn2c(C)c(C(=O)OCc3ccccc3)c3cc(O)c4ccccc4c32)cc1,91.9
4,O=c1c(Cc2ccccc2)c(O)c2ccccc2n1Cc1ccccc1,95.6
5,CCOc1ccc(-c2nc(CSc3nc4c(=O)[nH]cnc4n3-c3ccc(C)cc3)c(C)o2)cc1,103
6,O=c1[nH]c(=O)n(-c2ccccc2)c2c1C(C(F)(F)F)(C(F)(F)F)N=C(c1cccs1)N2,96.5
7,CCCNC(=O)c1cc(=O)n(CC(=O)Nc2c(C)cccc2C)c2ccccc12,91
8,Cc1cc2c(c(O)c1-c1c(C)cc3c(c1O)/C(=C/Nc1c(C)n(C)n(-c4ccccc4)c1=O)C(=O)C(O)=C3C(C)C)/C(=C/Nc1c(C)n(C)n(-c3ccccc3)c1=O)C(=O)C(O)=C2C(C)C,84.6
9,O=C(/C=C/c1ccc(Br)cc1)c1ccccc1O,94.6
10,N#Cc1nc2ccccc2n1C(=O)CN1CCc2ccccc2C1,92.6
11,Cc1cc(=O)[nH]c2ccc(S(=O)(=O)Nc3ccc4c(c3)OCO4)cc12,100
12,O=c1[nH]c(=O)n(C(c2ccccc2)c2ccccc2)cc1Br,117
13,COc1cc(C(=O)OCc2ccccc2Cl)cc(OC)c1OC,95.9
14,CCn1c(SCc2nc(-c3cccc(C)c3)oc2C)nc2c(=O)[nH]cnc21,103
15,CCc1ccc2[nH]c(=O)c(C(c3nnnn3CCOC)N(Cc3ccccc3)Cc3ccccc3Cl)cc2c1 (stereo not given),99.4
16,CSc1cccc(NC(=O)CSc2nc3c(=O)[nH]cnc3n2-c2ccc(C)cc2)c1,105
17,N=c1oc2ccc(Br)cc2cc1C(=O)Nc1ccc(F)cc1,112
18,c1ccc2c(c1)CN1CCCC1=N2,97.5
19,COc1ccc(C(=O)/C=C/c2ccc(OC)c(Cn3nnc4ccccc43)c2)cc1,80
20,COC(=O)c1ccc(C2CC(=O)Nc3c2cc(Br)c2ccccc32)cc1 (stereo not given),96.9
21,CC1(C)S[C@@H]2[C@H](NC(=O)Cc3ccccc3)C(=O)N2[C@H]1C(=O)O.CCN(CC)CCOCc1ccc(N)cc1,108
22,O=C(OCCNc1nc(-c2ccccc2)nc2ccccc12)c1cccnc1,92.7
23,O=C(O)c1cccc(C(=O)O)n1,106
24,CC(C)OC(=O)C1=C(N)Oc2c(oc(CO)cc2=O)C1c1ccc(Cl)cc1Cl (stereo not given),95.8
25,COc1ccc(Br)cc1-c1nc(CSc2nc3c(=O)[nH]c(C)nc3n2C)c(C)o1,103
26,CCCCOc1ccc(/C=C2\Oc3ccc(C(=O)OC)cc3C2=O)cc1OCC,102
27,Cc1ccc(Nc2c([N+](=O)[O-])c(=O)n(C)c3ccccc23)cc1,103

# 7 compounds picked at random from the list so far:
row,Structure (SMILES),cell viability [%]
15,Cc1[nH]c2c(C)ccc(F)c2c1CCNC(=O)c1ccc(Br)cc1,107
13,COc1cc(CCC(=O)Nc2sc(C)c(C)c2C#N)cc(OC)c1OC,101
26,CCOc1cc(/C=C2\Oc3ccc(C(=O)OC)cc3C2=O)ccc1O,16.8
22,O=C(OCCNc1nc(-c2ccccc2)nc2ccccc12)c1cccnc1,92.7
2,O=c1c(O)c(-c2ccc(O)cc2)oc2ccccc12,96.8
19,COc1ccc(C(=O)/C=C/c2ccc(OC)c(Cn3nnc4ccccc43)c2)cc1,80
18,c1ccc2c(c1)CN1CCCC1=N2,97.5

# Next part:

row,Structure (SMILES),cell viability [%]
1,COc1ccc(/C=C/C(=O)c2ccccc2O)cc1COc1cc(C)c(Cl)cc1C(C)C,102
2,COCCOC(=O)c1c(C)n(-c2ccc(Br)cc2)c2ccc(O)cc12,93
3,Cc1ccc(-n2c(SCC(=O)Nc3cccc(Cl)c3C)nc3c(=O)[nH]cnc32)cc1,105
4,COc1ccc(C(=O)NCCOc2cc(C)cc(C)c2)cc1OC,93.2
5,O=C(CSc1nc2ccccc2c(=O)[nH]1)N1CCN(c2ccccc2F)CC1,103
6,CC(=O)C1CCC2C3CC=C4CC(O[Si](C)(C)C(C)(C)C)CCC4(C)C3CCC12C (stereo not given),88.3
7,c1ccc2c(CCc3ccncc3)c[nH]c2c1,98.4
8,Cc1ccc(-n2c(SCc3ccccc3Cl)nc3c(=O)[nH]cnc32)cc1,107
9,CCCCC(NC(=O)CSc1nnc(-c2ccccc2)n1-c1ccccc1)C(=O)O (stereo not given),102
10,Cc1ccccc1N/C=C1\C(=O)C(O)=C(C(C)C)c2cc(C)c(-c3c(C)cc4c(c3O)/C(=C/Nc3ccccc3C)C(=O)C(O)=C4C(C)C)c(O)c21,85.8
11,O=C1c2ccccc2C(=O)c2c1ccc([O-])c2[O-].[Ni+2],98.9
12,COc1ccccc1CNC(=O)c1cc(OC)c(OC)c(OC)c1,100
13,O=c1[nH]c2ccc(OCc3ccccc3)cc2c(O)c1-c1ccccc1,92.6
14,CCOC(=O)/C(C#N)=C\c1ccc(C)cc1,101
15,COC(=O)CNC(=O)c1ccc(Cl)c(Cl)c1,105
16,CCc1ccc(C(c2c[nH]c3ccccc23)c2c[nH]c3ccccc23)cc1,97.7
17,O=C(Nc1ncnc2c1ncn2C1OC(COC(=O)c2ccc(Cl)cc2Cl)C(OC(=O)c2ccc(Cl)cc2Cl)C1OC(=O)c1ccc(Cl)cc1Cl)c1ccccc1 (stereo not given),74.5
18,CC(C)NCC(O)c1ccc(O)c(O)c1 (stereo not given),94.7
19,CC1OC(n2cc(F)c(=O)[nH]c2=O)C(O)C1O (stereo not given),95.6
20,Cn1c(SCc2ccccc2Cl)nc2c(=O)[nH]cnc21,86
21,N#CC1=C(N)Oc2cc(O)ccc2C1c1ccccc1F (stereo not given),13.8
22,COc1cccc(N2CCN(Cc3cc(=O)oc4cc(C)cc(C)c34)CC2)c1,91.3
23,COc1cc(C2C(C(=O)OC3CCCC3)=C(C)NC3=C2C(=O)CCC3)cc(Cl)c1O (stereo not given),106
24,O=C(O)C(Cc1ccccc1)NC(=O)C1CCCN1C(=O)OCc1ccccc1 (stereo not given),94.6
25,COc1cc(OC)cc(C(=O)NCc2ccco2)c1,96.2
26,COc1cc(C2NC(=O)NC(C)=C2C(=O)OCCOc2ccccc2)cc(Cl)c1O (stereo not given),105
27,Cc1ccc2c(CN3CCN(Cc4ccccc4C#N)CC3)cc(=O)oc2c1,91

row,Structure (SMILES),cell viability [%]
1,Cn1c(=O)c2ccccc2n(CC(=O)c2ccc3c(c2)OCCO3)c1=O,99.8
2,Cc1ccc(C(=O)NCCc2c(C)[nH]c3ccccc23)cc1,94.8
3,O=C(C1CC1(c1ccccc1)c1ccccc1)N1CCc2ccccc2C1 (stereo not given),95.7
4,COc1cc(/C=C(/C#N)C(=O)Nc2ccc(O)cc2)ccc1O,76
5,CCC(=O)Oc1ccc(/C=C/c2ccccc2)cc1OC,91
6,C=C(C)C1CCC2(COC(=O)/C=C/c3ccccc3)CCC3(C)C(CCC4C5(C)CCC(O)C(C)(C)C5CCC43C)C12 (stereo not given),97.4
7,NC(Cc1ccc2nsnc2c1)C(=O)O (stereo not given),100
8,O=c1oc2cc(OCc3ccccc3)c(Cl)cc2c2c1CCCC2,96.4
9,O=C(Cn1c(=O)cc(C(=O)N2CCCC2)c2ccccc21)Nc1cccc(Cl)c1,88
10,CCOC(=O)CCc1ccc2c(c1)NC(=O)CC2,91.8
11,C#C[C@]1(O)CC[C@H]2[C@@H]3CCc4cc(O)ccc4[C@H]3CC[C@@]21C,92.9
12,CNC(=O)c1cc(=O)n(CC(=O)Nc2ccc(C)c(F)c2)c2ccccc12,104
13,COc1c2c(c(CSc3nnnn3-c3ccccc3)c(OC)c1OC)C(=O)OC2,109
14,O=C(c1cc(Cl)ccc1Cl)N1CCc2ccccc2C1,93.9
15,COc1ccc(/C=C/C(=O)O)cc1S(=O)(=O)NCCCO,99.9
16,NC1=C(c2c[nH]c3ccccc23)C(=O)NC1=O,102
17,O=C(O)c1[nH]c(=O)[nH]c(=O)c1CN1CCC(Cc2ccccc2)CC1,107
18,COC(=O)COc1cc(C)c2c(c1)OC1(CC2c2ccccc2)CC(C)(C)NC(=O)N1 (stereo not given),95.9
19,COc1ccc(C2CC(=O)C3=C(C2)Nc2ccccc2NC3c2c(F)cccc2Cl)cc1 (stereo not given),99.1
20,CCN1Cc2ccccc2CC1C(=O)O (stereo not given),107
21,O=C(O)/C=C/c1ccc2c(c1)NC(=O)CO2,95.1
22,COCCOC(=O)c1c(C)n(CCOC23CC4CC(CC(C4)C2)C3)c2c1cc(O)c1ccccc12,81.2
23,COC(=O)c1ccc(C(=O)NCCc2c(C)[nH]c3ccc(OC)cc23)cc1,111
24,O=C(Nc1nc(-c2ccc3c(c2)OCCO3)cs1)c1ccc2c(c1)OCO2,94.1
